Results as given in patent US4826813A, “4'-Methyl-β-mercapto-β,β-cyclopentamethylenepropionic acid vasopressin antagonists” (SmithKline Beckman Corporation, priority 1987, dated 1989).
At least one peptide structure holds a part that was inferred or is arguable (an end, a ring closure or a residue). *1 amine or outer side, *2 acyl side, *3 side chain or, on linkers, in order; H or OH if unused. Where a SMILES comes first, the peptide text is derived from it. Bridges are numbered along the chain shown (N, C = ends). [ ]: non-standard residue; d: D form. X2 = C[C@H]1CC[C@@](CC(=O)[*:1])(S[*:2])CC1

Experiments:
female mongrel dogs = assay: partial agonist screen, indomethacin dog model under steady state water diuresis; type: in vivo; conditions: urine, 100 μg/kg i.v., three hours post dosing, with indomethacin
hydropenic rat = hydropenic rat screen, anti-ADH activity in vivo

Compound: CCOc1ccc(C[C@H]2NC(=O)C[C@]3(CC[C@H](C)CC3)SSC[C@@H](C(=O)N3CCC[C@H]3C(=O)N[C@@H](CCCNC(=N)N)C(N)=O)NC(=O)[C@H](CC(N)=O)NC(=O)[C@H](C(C)C)NC(=O)[C@H](Cc3ccccc3)NC2=O)cc1 [DTyr(Et) NH2, [1-(4'-methyl-β-mercapto-β,β-cyclopentamethylenepropionic acid)-2-(O-ethyl)-D-tyrosine-4-valine-8-arginine-9-desglycine]-vasopressin] ([dY](Et)FVNCPR-NH2; linker N-5 via X2)
- osmolality +INDO (female mongrel dogs): 70 mOsm/kg H2 O
- volume +INDO (female mongrel dogs): 2.0 mL/min
- Rat in vivo ED300 (hydropenic rat): 0.045 mg/kg
